Laboratory results taken from PubChem BioAssay AID504834 (National Center for Advancing Translational Sciences (NCATS), 2011).
About 22,000 (6.9%) of roughly 320,000 compounds were called active. This list was built around the results that the source calls inconclusive (neither active nor inactive); the mix of calls is not that of the screen. Calls follow the shape of the dose curve; as a rule, active = well fitted inhibition curve with a large enough effect; inconclusive = small, poorly fitted or top-dose-only effect, or another doubt; inactive = no such curve, though single readings can be large or run the other way. Where the call is inconclusive, the potency comes from a doubtful curve fit.

assay: Primary qHTS for delayed death inhibitors of the malarial parasite plastid, 96 hour incubation; conditions: P. falciparum luciferase reporter growth; series mostly up to 28.7 µM
How it was run: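 Luminescence readout: decreased luciferase signal marks inhibited growth of reporter-expressing P. falciparum in infected red cells (2% hematocrit, 0.05% parasitemia final), exposed to compound two generations (96 h, 37 C, 5% CO2).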
Potency is read from the fitted curve at half-maximal effect.

| Structure (SMILES) | Potency |
| --- | --- |
| Cc1c(Cl)cccc1NCC(=O)NN=C1CCCC1 | inactive |
| N#Cc1ccc(Oc2ccc(-c3nc4ccccc4nc3-c3ccccc3)cc2)cc1C#N | active: 3.7 µM |
| Cc1ccc(Nc2nnc(SCC(=O)Nc3cccnc3Cl)s2)cc1C | inactive |
| CC(=O)c1ccc(N2CCN(C(=O)c3nn(C)c4c3CS(=O)(=O)c3ccccc3-4)CC2)cc1 | inconclusive: 18.5 µM [inhibitor, single point] |
| COc1ccc(OC)c(C2Nc3ccccc3NC3=C2C(=O)CC(C)(C)C3)c1 (configuration not stated) | active: 4.15 µM |
| Fc1ccc(CNC(=S)Nc2cccc(Cl)c2)cc1 | inactive |
| CN(C)S(=O)(=O)c1cccc(NC(=O)c2ccc3c(c2)S(=O)(=O)N=C2CCCCCN23)c1 | inconclusive: 10.4 µM [inhibitor, partial curve] |
| Cc1cc(C(=O)CSc2n[nH]c(N)n2)c(C)n1-c1cccc(F)c1 | inactive |
| O=C(CN(Cc1ccccc1F)S(=O)(=O)c1ccc(Cl)cc1)NCCC1=CCCCC1 | active: 11.7 µM |
| CC1CN/C(=C\C(=O)c2ccccc2)C(=O)N1 (configuration not stated) | inactive |
| COc1ccc(NC(=S)N/N=C/c2ccc(F)c(F)c2)cc1 | inactive |
| CCNC(=O)C12CCC(C)(c3nc4cc(C)c(C)cc4nc31)C2(C)C (configuration not stated) | inactive |
| O=C(c1ccc(COc2c(F)c(F)c(F)c(F)c2F)o1)N1CCN(Cc2ccc3c(c2)OCO3)CC1 | inconclusive: 18.5 µM [inhibitor, single point] |
| Cc1nn(C)c(Cl)c1/C=C/C(=O)O | inconclusive: 4.15 µM [inhibitor, single point] |
| COc1ccc(Nc2nnc(-c3ccc(O)cc3)c3ccccc23)cc1C(N)=O | inconclusive: 18.5 µM [inhibitor, single point] |
| COC(=O)CN1C(=S)N(c2ccc(Cl)cc2)C(=O)C1CC(=O)Nc1ccccc1 (configuration not stated) | inconclusive: 11.7 µM [inhibitor, single point] |
| N#Cc1cc([N+](=O)[O-])ccc1NC(=O)COC(=O)C12CC3CC(CC(C3)C1)C2 | inconclusive: 16.5 µM [inhibitor, single point] |
| O=C(Nc1cc(F)ccc1F)C1CCCN(c2ncnc3c2nc2n3CCCCC2)C1 (configuration not stated) | inconclusive: 4.65 µM [inhibitor, partial curve] |
| COc1ccc(OCC(=O)Nc2c3c(nn2C(C)(C)C)CSC3)cc1 | inactive |
| CCC(CC)C(=O)N1CC(=O)Nc2ccc(Br)cc2C1c1ccccc1 (configuration not stated) | active: 8.28 µM |
| COc1ccc(OCCSc2nc(C)c(Cc3ccccc3)c(=O)[nH]2)cc1 | inactive |
| C=CCNc1nnc(SC2CC(=O)N(c3ccc(OC)cc3)C2=O)s1 (configuration not stated) | inconclusive: 9.28 µM [inhibitor, single point] |

Entries shown so far with two or more sulfur atoms, in the order listed:

| Structure (SMILES) | Potency |
| --- | --- |
| Cc1ccc(Nc2nnc(SCC(=O)Nc3cccnc3Cl)s2)cc1C | inactive |
| CN(C)S(=O)(=O)c1cccc(NC(=O)c2ccc3c(c2)S(=O)(=O)N=C2CCCCCN23)c1 | inconclusive: 10.4 µM [inhibitor, partial curve] |
| C=CCNc1nnc(SC2CC(=O)N(c3ccc(OC)cc3)C2=O)s1 (configuration not stated) | inconclusive: 9.28 µM [inhibitor, single point] |
